The record followed here is article PMC6338772.

The chains behind the UniProt entries cited, without tags or fusion partners.
UniProt P70338: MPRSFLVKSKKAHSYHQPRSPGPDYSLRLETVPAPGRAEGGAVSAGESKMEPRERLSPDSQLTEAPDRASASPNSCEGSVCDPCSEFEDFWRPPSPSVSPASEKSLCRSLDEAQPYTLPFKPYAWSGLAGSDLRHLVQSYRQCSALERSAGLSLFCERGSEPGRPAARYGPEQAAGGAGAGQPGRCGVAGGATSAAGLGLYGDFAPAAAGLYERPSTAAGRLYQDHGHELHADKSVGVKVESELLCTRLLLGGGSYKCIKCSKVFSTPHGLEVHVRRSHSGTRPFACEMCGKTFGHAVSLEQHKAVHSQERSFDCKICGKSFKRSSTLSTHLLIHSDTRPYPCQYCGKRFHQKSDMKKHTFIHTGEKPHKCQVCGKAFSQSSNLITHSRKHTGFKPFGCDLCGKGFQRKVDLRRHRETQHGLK
UniProt Q8CFE3: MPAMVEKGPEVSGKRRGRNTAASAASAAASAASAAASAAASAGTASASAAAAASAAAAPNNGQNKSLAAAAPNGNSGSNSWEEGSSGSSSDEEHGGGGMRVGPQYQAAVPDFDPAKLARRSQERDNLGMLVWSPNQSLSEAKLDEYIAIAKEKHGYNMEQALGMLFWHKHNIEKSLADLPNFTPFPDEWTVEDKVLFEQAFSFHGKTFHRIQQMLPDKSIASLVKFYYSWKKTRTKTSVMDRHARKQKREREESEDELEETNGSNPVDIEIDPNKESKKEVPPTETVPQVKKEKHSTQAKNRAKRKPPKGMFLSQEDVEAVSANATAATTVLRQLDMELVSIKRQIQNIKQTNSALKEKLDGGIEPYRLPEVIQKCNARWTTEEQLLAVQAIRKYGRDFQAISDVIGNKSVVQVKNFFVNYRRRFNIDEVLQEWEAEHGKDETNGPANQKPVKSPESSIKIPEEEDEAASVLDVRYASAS
UniProt P70288: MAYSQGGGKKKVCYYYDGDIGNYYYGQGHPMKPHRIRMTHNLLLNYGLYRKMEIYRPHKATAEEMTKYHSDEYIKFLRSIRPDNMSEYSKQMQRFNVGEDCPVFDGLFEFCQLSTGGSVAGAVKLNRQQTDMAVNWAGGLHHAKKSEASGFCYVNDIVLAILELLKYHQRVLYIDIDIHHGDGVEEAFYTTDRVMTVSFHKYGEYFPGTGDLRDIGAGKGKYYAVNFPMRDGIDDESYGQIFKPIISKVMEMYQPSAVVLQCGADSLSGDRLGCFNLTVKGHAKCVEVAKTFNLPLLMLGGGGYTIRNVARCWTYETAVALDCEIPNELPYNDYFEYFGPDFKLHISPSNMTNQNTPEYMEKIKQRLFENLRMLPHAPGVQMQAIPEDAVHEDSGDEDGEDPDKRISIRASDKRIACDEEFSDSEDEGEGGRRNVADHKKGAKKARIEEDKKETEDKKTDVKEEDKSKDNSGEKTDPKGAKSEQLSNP
UniProt O09106: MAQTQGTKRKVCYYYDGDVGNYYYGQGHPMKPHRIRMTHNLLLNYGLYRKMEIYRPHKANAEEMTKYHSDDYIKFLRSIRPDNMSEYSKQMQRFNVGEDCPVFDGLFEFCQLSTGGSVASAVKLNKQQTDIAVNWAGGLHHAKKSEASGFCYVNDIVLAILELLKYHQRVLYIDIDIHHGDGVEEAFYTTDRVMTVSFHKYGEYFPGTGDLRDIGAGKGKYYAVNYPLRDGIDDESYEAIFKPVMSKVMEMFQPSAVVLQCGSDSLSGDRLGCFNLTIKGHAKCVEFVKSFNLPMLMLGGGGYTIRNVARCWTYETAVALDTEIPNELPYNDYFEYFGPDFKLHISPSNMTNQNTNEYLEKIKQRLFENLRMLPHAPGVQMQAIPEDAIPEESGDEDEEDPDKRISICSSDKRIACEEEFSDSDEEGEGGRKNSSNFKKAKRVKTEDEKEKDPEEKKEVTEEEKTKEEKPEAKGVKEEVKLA

Results are given in words; binding and its absence hold for the method and conditions named. Binding seen in cells or lysates may run through a third protein. Some results given as binding are weak or reduced against the parent protein; the word gives no strength.

Experiment [1] deals with Gfi1 (growth factor independent 1) (UniProt P70338). Briefly: co-IP; MG tumor cell lysates (150 mM NaCl, 20 mM Tris, 1% Triton X-100, protease inhibitors), precleared; immunoprecipitation with antibodies to Gfi1, Lsd1 or CoREST or isotype control, Protein G beads; Western blot. (Immunoblotting shows a protein as a band on a membrane.)
Experiment [2] addresses corepressor CoREST (mouse (endogenous in MG tumor cells)) (UniProt Q8CFE3). The experiment is described as above.

For the substance “histone deacetylase HDAC2 (from UniProt P70288 1-488) (enzyme)”, the binding result in experiment [1] is on record as “no binding”.
“Gfi1 (growth factor independent 1) (from UniProt P70338 1-423)”: the binding entry in experiment [2] is given as “binds”.
Regarding “histone deacetylase HDAC1 (from UniProt O09106 1-482) (enzyme)”, the binding result in experiment [1] is “no binding”.
